Laboratory results from PubChem BioAssay AID2685 (National Center for Advancing Translational Sciences (NCATS), 2010).
In all, about 320,000 compounds went through this assay and about 2,100 (0.66%) were called active. This list was built around the results that the source calls inconclusive (neither active nor inactive); the mix of calls is not that of the screen. Calls follow the shape of the dose curve; as a rule, active = well fitted inhibition curve with a large enough effect in the signal ratio, with a control signal flat (not every such curve was filed as active); inconclusive = small, poorly fitted or top-dose-only effect, or effect the other way, or a change in a side signal; inactive = flat fitted curve, though single readings scatter; the % refers to the signal ratio. Where the call is inconclusive, the potency comes from a doubtful curve fit.

test: qHTS Assay for Lipid Storage Modulators in Drosophila S3 Cells; conditions: BODIPY lipid droplet fluorescence, 18-24 h, cells fed with added oleic acid; lipid storage change, negative = inhibition: at 46.1 µM (top of the series) unless noted
Method in brief: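 Drosophila S3 cells got compounds at several concentrations plus oleic acid (400 uM solution). Laser-scanning cytometry with 488 nm excitation read lipid droplets at 500-530 nm and cells at 575-640 nm. Percent activity was relative to 20 uM Triacsin C.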
% is scaled to controls: 0 for no effect and ±100 for the full control effect; potency is read from the fitted curve at half-maximal effect.

Lipid storage change, negative = inhibition, inconclusive:
CN(C(=O)CSc1nc2c(cnn2-c2ccccc2)c(=O)[nH]1)C1CCS(=O)(=O)C1 (stereo unspecified) -24.9%
CCN(CC(=O)Nc1c(F)cccc1F)C(=O)CN1C(=O)c2ccccc2C1=O
COc1ccccc1-c1nc(=S)c(C(C)=O)c(C)[nH]1 9.63%
CSc1cccc2sc(NC(=O)C3=COCCO3)nc12
CCCCN(C(=O)COC(=O)CSc1cc(C)c2ccccc2n1)c1c(N)n(CCC)c(=O)[nH]c1=O 1.15%
O=C(COC(=O)c1cccnc1Cl)c1ccc(OC(F)F)cc1 0.369%
Cc1cc(NC(=O)COC(=O)C2CC(=O)N(c3ccc(Cl)cc3)C2)no1 (stereo unspecified) -37.5%
CC(O)CNCCCCOc1ccc(OCc2ccccc2)cc1 (stereo unspecified) -13.5%
COC(=O)c1ccc2c(=O)n(Cc3ccco3)c(SCC(=O)Nc3cc(C)on3)nc2c1 -33% [at 0.00295 µM]
CCCn1nc(C(=O)OCC(=O)NC(C)c2ccccc2)c2ccccc2c1=O (stereo unspecified) 11.5%
O=C(c1nc2ccccn2c1CN1CCN(c2ccccc2O)CC1)N1CCCC1 0.631%
O=C(C1CCCN(S(=O)(=O)c2cccc3nonc23)C1)N1CCN(c2ccccc2Cl)CC1 (stereo unspecified) -2.36%
O=C1CCCN1CCCNc1ccc2nnc(CCC(=O)N3CCN(c4ccccc4)CC3)n2n1 33.9%
Cc1ccc(Nc2cc(C)nc(N3CCOCC3)n2)cc1 -33.8%
O=C(Nc1ccc(Cl)cc1)c1cc(S(=O)(=O)N2CCOCC2)cs1 -6.61%
CC(=O)c1ccc(NC(=O)C(NC(=O)c2ccccc2)=C(C)C)cc1 16.8%

Arranged by length of the SMILES (smallest number first): 3 of the compounds above.
Lipid storage change, negative = inhibition, inconclusive:
CC(O)CNCCCCOc1ccc(OCc2ccccc2)cc1 (stereo unspecified) -13.5%
O=C(Nc1ccc(Cl)cc1)c1cc(S(=O)(=O)N2CCOCC2)cs1 -6.61%
CN(C(=O)CSc1nc2c(cnn2-c2ccccc2)c(=O)[nH]1)C1CCS(=O)(=O)C1 (stereo unspecified) -24.9%

Following part:

Potency, inconclusive:
O=C(CSc1nnc(NC(=O)C2CC2)s1)Nc1ccccc1Cl 18.4 µM [activator, partial curve]
CC1CN(C(=O)c2ccccc2Nc2ccc(SC(F)F)cc2)CC(C)O1 (stereo unspecified) 7.31 µM [activator, partial curve]
Cc1ccccc1NC(=O)CCCCC(=O)Nc1ccccc1C 13 µM [activator, partial curve]
Cc1cccc(-n2c(Cc3cc(=O)[nH]c(=O)[nH]3)nnc2SCC(=O)N2CCCCC2)c1 0.259 µM [falling, full curve]
COc1ccccc1N1CCN(C(=O)CCc2c[nH]c3ccccc23)CC1 0.116 µM [falling, single point]
